Test results published in patent publication US20180346573A1 (I MAB, published 2018).
Results are given in words; binding and its absence hold for the method and conditions named. Some results given as binding are weak or reduced against the parent protein; the word gives no strength.

By UniProt entry, the sequences of proteins in these tests, tags left out. Where a name states a change or a piece, a line headed by the entry shows the natural chain unless it says otherwise. Chains listed by the source or under a name are the forms on record and can include a tag or linker. Residues count along the entry.
rhesus PD-L1-Fc protein (F6PJN1, form named): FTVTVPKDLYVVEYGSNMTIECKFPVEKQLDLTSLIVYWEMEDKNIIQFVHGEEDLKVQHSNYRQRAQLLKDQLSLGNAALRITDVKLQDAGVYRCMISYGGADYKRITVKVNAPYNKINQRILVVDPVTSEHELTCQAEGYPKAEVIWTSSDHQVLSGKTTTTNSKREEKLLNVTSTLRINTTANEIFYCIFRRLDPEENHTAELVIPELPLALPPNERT
UniProt Q9NZQ7, residues 19-239: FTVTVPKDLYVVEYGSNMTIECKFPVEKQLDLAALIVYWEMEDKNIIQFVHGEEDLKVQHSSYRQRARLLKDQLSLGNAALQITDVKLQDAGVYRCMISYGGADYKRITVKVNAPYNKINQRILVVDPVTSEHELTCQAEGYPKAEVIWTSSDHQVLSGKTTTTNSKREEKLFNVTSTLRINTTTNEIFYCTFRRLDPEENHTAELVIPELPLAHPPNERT

What was measured:
[1] = biological target: rhesus PD-L1-Fc protein (rhesus) (UniProt F6PJN1); test: ELISA (FIG. 8 legend)
[2] = biological target: rhesus PD-L1-Fc protein (rhesus) (UniProt F6PJN1); test: ELISA, plate coated with rhesus PD-L1-Fc
[3] = biological target: PD-L1 (antigen of the Octet Red 96 affinity ranking; construct not named) (human) (UniProt Q9NZQ7); test: Octet Red 96 affinity ranking

B1: Hu1210-41 (antibody, V domains shown)
VH: EVQLVESGGGLVQPGGSLRLSCAASGFTFSSYDMSWVRQAPGKSLEWVATISDAGGYIYYSDSVKGRFTISRDNAKNSLYLQMNSLRDEDTAVYICAREFGKRYALDYWGQGTTVTVSS
VL: DIQMTQSPSSLSASVGDRVTITCKASQDVTPAVAWYQQKPGKAPKLLIYSTSSRYTGVPSRFSGSGSGTDFTFTISSLQPEDIATYYCQQHYTTPLTFGQGTKLEIK
With B1 the binding [1] was “binds” and the binding [2] was “binds”.

B2: Hu1210-3 (antibody, V domains shown)
VH: EVQLVESGGGLVKPGGSLRLSCAASGFTFSSYDMSWVRQAPGKSLEWVATISDGGGYIYYSDSVKGRFTISRDNAKNSLYLQMNSLRAEDTAVYICAREFGKRYALDYWGQGTTVTVSS
VL: DIQMTQSPSSLSASVGDRVTITCKASQDVTPAVAWYQQKPGKAPKLLIYSTSSRYTGVPSRFSGSGSGTDFTFTISSLQPEDIATYYCQQHYTTPLTFGQGTKLEIK
notes: Not the mouse mAb HL1210-3
With B2 the binding [3] was “binds”.

B3: Hu1210-14 (antibody, V domains shown)
VH: EVQLLESGGGLVQPGGSLRLSCAASGFTFSSYDMSWVRQAPGKSLEWVATISDGGGYIYYSDSVKGRFTISRDNSKNTLYLQMNSLRAEDTAVYICAREFGKRYALDYWGQGTTVTVSS
VL: DIQMTQSPSSLSASVGDRVTITCKASQDVTPAVAWYQQKPGKAPKLLIYSTSSRYTGVPSRFSGSGSGTDFTFTISSLQPEDIATYYCQQHYTTPLTFGQGTKLEIK
In the case of B3, the binding [3] is reported as “binds”.

B4: Hu1210-22 (antibody, V domains shown)
VH: EVQLVESGGGLVQPGGSLRLSCAASGFTFSSYDMSWVRQAPGKSLEWVATISDGGGYIYYSDSVKGRFTISRDNAKNSLYLQMNSLRDEDTAVYICAREFGKRYALDYWGQGTTVTVSS
VL: DIQMTQSPSSLSASVGDRVTITCKASQDVTPAVAWYQQKPGKSPKLLIYSTSSRYTGVPSRFSGSGSGTDFTFTISSLQPEDIATYYCQQHYTTPLTFGQGTKLEIK
With B4 the binding [3] was “binds”.

B5: Hu1210-8 (antibody, V domains shown)
VH: EVQLVESGGGLVKPGGSLRLSCAASGFTFSSYDMSWVRQAPGKGLEWVATISDGGGYIYYSDSVKGRFTISRDNAKNSLYLQMNSLRAEDTAVYYCAREFGKRYALDYWGQGTTVTVSS
VL: DIQMTQSPSSLSASVGDRVTITCKASQDVTPAVAWYQQKPGKSPKLLIYSTSSRYTGVPSRFSGSGSGTDFTFTISSLQPEDIATYYCQQHYTTPLTFGQGTKLEIK
With B5 the binding [3] was “binds”.

B6: Hu1210-1 (antibody, V domains shown)
VH: EVQLVESGGGLVKPGGSLRLSCAASGFTFSSYDMSWVRQAPGKGLEWVSTISDGGGYIYYSDSVKGRFTISRDNAKNSLYLQMNSLRAEDTAVYYCAREFGKRYALDYWGQGTTVTVSS
VL: DIQMTQSPSSLSASVGDRVTITCKASQDVTPAVAWYQQKPGKAPKLLIYSTSSRYTGVPSRFSGSGSGTDFTFTISSLQPEDIATYYCQQHYTTPLTFGQGTKLEIK
In the case of B6, the binding [3] is reported as “binds”.
